Assay [1] concerns ReNCell VM. The assay can be described thus: neuronal differentiation score (DCX+ cell fraction vs untreated, manual image score) (score (-3 to 3)); higher = more neuronal differentiation. The settings on record: 2 uM, 2 weeks.
For assay [2], the system named is ReNCell VM. The assay can be described thus: dopaminergic neuron differentiation score (TH+ cell fraction vs untreated, manual image score) (score (0 to 3)); higher = more TH+ dopaminergic neuron differentiation. Conditions: 2 uM, 4 weeks, BDNF 10 ng/ml + GDNF 10 ng/ml.

Structures can show the parent of a compound that is named as a salt. The list shows a part of the results. This data set is noisy: repeats of one test often differ as much as different tests do.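 Human fetal ventral-midbrain neural progenitor line ReNCell VM, differentiated without mitogens. Images stained for doublecortin (early neurons) or tyrosine hydroxylase (dopaminergic neurons) were scored by blinded raters against untreated wells (0 = no change). Repeats and both raters were averaged, and compounds averaging 2 or higher were picked as hits for retesting.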

On to `O=C1O[C@H](CO)[C@@H](O)[C@H](O)[C@H]1O`, for which the neuronal differentiation score with ReNCell VM [1] (library: Spectrum) was inactive: 0. The “dopaminergic neuron differentiation score” value with ReNCell VM [2] (library: Spectrum) was inactive: 0.
`Nc1ncnc2c1ncn2[C@@H]1O[C@H](CO)C[C@H]1O` [Cordycepin]: the neuronal differentiation score in the assay on ReNCell VM [1] (library: Tocriscreen) is inactive: 0. Further, the “dopaminergic neuron differentiation score” value in the assay with ReNCell VM [2] (library: Tocriscreen) is inactive: 0.
Consider `CC(C)(C)NC[C@H](O)COc1cccc2c1CCCC2=O`, for which, in the assay on ReNCell VM [1] (library: Spectrum), the neuronal differentiation score is inactive: 0. The “dopaminergic neuron differentiation score” value with ReNCell VM [2] (library: Spectrum) was inactive: 0.
Take `CC(=O)C1(C)CC2(CC(C)(C)OC2=O)C(=O)O1` (stereo not drawn): in the assay on ReNCell VM [1] (library: Natural), the neuronal differentiation score is inactive: 0. In addition, the “dopaminergic neuron differentiation score” value with ReNCell VM [2] (library: Natural) was inactive: 0.
With `CN[C@@H]1[C@H](O[C@H]2[C@H](O[C@H]3[C@H](O)[C@@H](O)[C@H](N=C(N)N)[C@@H](O)[C@@H]3N=C(N)N)O[C@@H](C)[C@]2(O)C=O)O[C@@H](CO)[C@H](O)[C@H]1O`, the neuronal differentiation score with ReNCell VM [1] (library: Spectrum) was inactive: 0. In addition, in the assay on ReNCell VM [2] (library: Spectrum), the “dopaminergic neuron differentiation score” value is inactive: 1.
On to `CC(C)CC(NC(=O)OCC1c2ccccc2-c2ccccc21)C(=O)O` (stereo in doubt), for which, in the assay on ReNCell VM [1] (library: Spectrum), the neuronal differentiation score was inactive: 0. Moreover, the “dopaminergic neuron differentiation score” value in the assay on ReNCell VM [2] (library: Spectrum) is inactive: 0.
On to `COc1ccc(NC(=O)c2cc(OCCCN(C)C)nn2Cc2ccccc2)cc1` [CFM 1571 hydrochloride], for which the neuronal differentiation score with ReNCell VM [1] (library: Tocriscreen) was inactive: 0. The “dopaminergic neuron differentiation score” value in the assay with ReNCell VM [2] (library: Tocriscreen) is inactive: 0.
For the molecule `Cc1ccccc1OCC(O)CO` (stereo not drawn), the neuronal differentiation score in the assay with ReNCell VM [1] (library: Spectrum) was inactive: 0. For the same molecule, in the assay on ReNCell VM [2] (library: Spectrum), the “dopaminergic neuron differentiation score” value is inactive: 0.
Take `c1ccc(C(NCCNC(c2ccccc2)c2ccccc2)c2ccccc2)cc1` [AMN 082 dihydrochloride]: the neuronal differentiation score in the assay with ReNCell VM [1] (library: Tocriscreen) is inactive: 0. The “dopaminergic neuron differentiation score” value with ReNCell VM [2] (library: Tocriscreen) was inactive: 0.
`COc1cc(Cc2cnc(N)nc2N)cc(OC)c1OC`: the neuronal differentiation score with ReNCell VM [1] (library: Spectrum) is inactive: 0. Besides, the “dopaminergic neuron differentiation score” value with ReNCell VM [2] (library: Spectrum) is inactive: 0.
For the molecule `COc1cccc(N(C)C(=S)Oc2ccc3c(c2)CCCC3)n1` [Liranaftate], in the assay with ReNCell VM [1] (library: Prestwick), the neuronal differentiation score is inactive: 0. Besides, the “dopaminergic neuron differentiation score” value in the assay on ReNCell VM [2] (library: Prestwick) is inactive: 0.
On to `N[C@@H](Cc1cc(-c2ccc(Cl)cc2Cl)cc(CP(=O)(O)O)c1O)C(=O)O`, for which, in the assay with ReNCell VM [1] (library: Tocriscreen), the neuronal differentiation score is inactive: 0. The “dopaminergic neuron differentiation score” value in the assay with ReNCell VM [2] (library: Tocriscreen) was inactive: 0.
Consider `CS(=O)(=O)c1ccc([C@@H](O)[C@@H](CF)NC(=O)C(Cl)Cl)cc1` [Florfenicol], for which the neuronal differentiation score in the assay with ReNCell VM [1] (library: Prestwick) is inactive: 0. Further, the “dopaminergic neuron differentiation score” value with ReNCell VM [2] (library: Prestwick) was inactive: 0.
Regarding `OCc1ccccn1`, the neuronal differentiation score in the assay on ReNCell VM [1] (library: Spectrum) is inactive: 0. For the same molecule, in the assay with ReNCell VM [2] (library: Spectrum), the “dopaminergic neuron differentiation score” value was inactive: 0.
For the molecule `CCc1cc2c(c(CC)n1)CCC(=O)N2Cc1ccc(-c2ccccc2-c2nn[nH]n2)cc1` [ZD 7155 hydrochloride], in the assay on ReNCell VM [1] (library: Tocriscreen), the neuronal differentiation score is inactive: 0. In addition, the “dopaminergic neuron differentiation score” value with ReNCell VM [2] (library: Tocriscreen) was inactive: 0.
As for `CCN(CC)CCNC(=O)COc1ccc(OC)cc1` [Mefexamide hydrochloride], in the assay on ReNCell VM [1] (library: Prestwick), the neuronal differentiation score was inactive: 0. In addition, the “dopaminergic neuron differentiation score” value with ReNCell VM [2] (library: Prestwick) is inactive: 0.
For the molecule `c1ccc2c(c1)CCCC2C1=NCCN1` (stereo not drawn), in the assay with ReNCell VM [1] (library: Spectrum), the neuronal differentiation score was inactive: 0. Besides, the “dopaminergic neuron differentiation score” value with ReNCell VM [2] (library: Spectrum) is inactive: 0.
Take `O=c1[nH]cc(F)c(=O)[nH]1` [5-Fluorouracil]: in the assay with ReNCell VM [1] (library: LOPAC), the neuronal differentiation score is inactive: 0. Also, the “dopaminergic neuron differentiation score” value in the assay with ReNCell VM [2] (library: LOPAC) was inactive: 0.
As to `O=c1c2ccccc2nc2n1CCc1c-2[nH]c2ccccc12` [rutaecarpine], the neuronal differentiation score in the assay on ReNCell VM [1] (library: Natural) is inactive: 0. Also, the “dopaminergic neuron differentiation score” value in the assay on ReNCell VM [2] (library: Natural) is inactive: 0.
Turning to `C[C@@H]1CC[C@@]2(OC1)O[C@H]1C[C@H]3[C@@H]4CC=C5C[C@@H](O)CC[C@]5(C)[C@H]4CC[C@]3(C)[C@H]1[C@@H]2C` [diosgenin], the neuronal differentiation score with ReNCell VM [1] (library: Natural) was active: 3. Besides, the “dopaminergic neuron differentiation score” value in the assay on ReNCell VM [2] (library: Natural) was inactive: 0.
With `C[C@](N)(Cc1ccc(O)c(O)c1)C(=O)O` [Methyldopa (L,-)], the neuronal differentiation score with ReNCell VM [1] (library: Prestwick) is inactive: 0. Besides, the “dopaminergic neuron differentiation score” value in the assay on ReNCell VM [2] (library: Prestwick) was inactive: 0.
Regarding `CC[C@H](c1ccc(O)cc1)[C@@H](CC)c1ccc(O)cc1` [Hexestrol], the neuronal differentiation score with ReNCell VM [1] (library: Prestwick) is inactive: 0. Besides, the “dopaminergic neuron differentiation score” value in the assay with ReNCell VM [2] (library: Prestwick) was inactive: 0.
With `CC(=O)Oc1cc2c(s1)CCN(C(C(=O)C1CC1)c1ccccc1F)C2` (stereo not drawn), the neuronal differentiation score with ReNCell VM [1] (library: Spectrum) is inactive: 0. The “dopaminergic neuron differentiation score” value in the assay with ReNCell VM [2] (library: Spectrum) is inactive: 0.
With `O=C1O[C@H]([C@@H](O)CO)C(O)=C1O` [Ascorbic acid], in the assay with ReNCell VM [1] (library: Prestwick), the neuronal differentiation score was inactive: 0. The “dopaminergic neuron differentiation score” value in the assay on ReNCell VM [2] (library: Prestwick) was inactive: 0.
For `NC(=O)NC(=O)Cc1ccccc1`, the neuronal differentiation score in the assay on ReNCell VM [1] (library: Spectrum) was inactive: 0. For the same molecule, the “dopaminergic neuron differentiation score” value in the assay with ReNCell VM [2] (library: Spectrum) is inactive: 0.
Turning to `CC(=O)CC(c1ccc([N+](=O)[O-])cc1)c1c(O)c2ccccc2oc1=O` (stereo not drawn), the neuronal differentiation score in the assay with ReNCell VM [1] (library: Spectrum) was inactive: 0. Further, the “dopaminergic neuron differentiation score” value with ReNCell VM [2] (library: Spectrum) is inactive: 0.
As for `Nc1ncnc2c1ncn2[C@@H]1O[C@H](COP(=O)(O)O)[C@@H](O)[C@H]1O`, in the assay on ReNCell VM [1] (library: Spectrum), the neuronal differentiation score is inactive: 0. The “dopaminergic neuron differentiation score” value in the assay on ReNCell VM [2] (library: Spectrum) was inactive: 0.
In the case of `CCCN(CCC)CCc1cccc2c1CC(=O)N2`, the neuronal differentiation score in the assay with ReNCell VM [1] (library: Spectrum) was inactive: 0. Also, in the assay with ReNCell VM [2] (library: Spectrum), the “dopaminergic neuron differentiation score” value is inactive: 0.
Consider `NCCNC(=O)c1ncsc1-c1cccc(F)c1` [Ro 41-1049 hydrochloride], for which, in the assay with ReNCell VM [1] (library: LOPAC), the neuronal differentiation score is inactive: 0. The “dopaminergic neuron differentiation score” value with ReNCell VM [2] (library: LOPAC) was inactive: 0.
As for `CC(=O)Oc1cc(C(F)(F)F)ccc1C(=O)O` [Triflusal], in the assay on ReNCell VM [1] (library: Prestwick), the neuronal differentiation score is inactive: 0. Moreover, in the assay with ReNCell VM [2] (library: Prestwick), the “dopaminergic neuron differentiation score” value is inactive: 0.
Consider `Cc1cc(O)c(C)c(O)c1C(=O)O`, for which the neuronal differentiation score with ReNCell VM [1] (library: Spectrum) is inactive: 0. Further, the “dopaminergic neuron differentiation score” value in the assay on ReNCell VM [2] (library: Spectrum) was inactive: 1.
Turning to `COc1cc2cc3c4cc(OC)c(OC)cc4cc[n+]3c(C)c2cc1OC`, the neuronal differentiation score in the assay with ReNCell VM [1] (library: Spectrum) was inactive: 0. In addition, the “dopaminergic neuron differentiation score” value in the assay with ReNCell VM [2] (library: Spectrum) is inactive: 0.
In the case of `O=c1oc2ccccc2c(O)c1Cc1c(O)c2ccccc2oc1=O` [Dicumarol], the neuronal differentiation score in the assay with ReNCell VM [1] (library: Prestwick) was inactive: 0. Besides, the “dopaminergic neuron differentiation score” value with ReNCell VM [2] (library: Prestwick) is inactive: 1.
In the case of `CCCCCCCC/C=C\CCCCCCCC(=O)NCCc1ccc(O)c(O)c1` [N-Oleoyldopamine], the neuronal differentiation score in the assay with ReNCell VM [1] (library: LOPAC) was inactive: 0. The “dopaminergic neuron differentiation score” value with ReNCell VM [2] (library: LOPAC) was inactive: 0.

The record behind these values is the supplement of paper PMC4635364.
